Experimental data taken from PubChem BioAssay AID1671190 (National Center for Advancing Translational Sciences (NCATS), 2021).
Several values for one entry are separate records, joined by “and”; a condition that tells them apart may be missing. Equal entries are not always repeated. The whole screen tested about 580,000 compounds, of which about 6,100 (1.1%) were called active. The inconclusive results got no clear call from the source; some entries with a clear call stand among them for comparison. The call rests on the fitted dose curve; in most records, active means well fitted inhibition curve with a large enough effect; inconclusive means small, poorly fitted or top-dose-only effect, or another doubt; inactive means no such curve, though single readings can be large or run the other way. Potencies of inconclusive entries are doubtful fits and often do not repeat.

Chains of the proteins cited; added tags and fusions are not shown. Lines headed by an entry give the natural chain unless they say otherwise; changes in a name come on top.
UniProt P18054: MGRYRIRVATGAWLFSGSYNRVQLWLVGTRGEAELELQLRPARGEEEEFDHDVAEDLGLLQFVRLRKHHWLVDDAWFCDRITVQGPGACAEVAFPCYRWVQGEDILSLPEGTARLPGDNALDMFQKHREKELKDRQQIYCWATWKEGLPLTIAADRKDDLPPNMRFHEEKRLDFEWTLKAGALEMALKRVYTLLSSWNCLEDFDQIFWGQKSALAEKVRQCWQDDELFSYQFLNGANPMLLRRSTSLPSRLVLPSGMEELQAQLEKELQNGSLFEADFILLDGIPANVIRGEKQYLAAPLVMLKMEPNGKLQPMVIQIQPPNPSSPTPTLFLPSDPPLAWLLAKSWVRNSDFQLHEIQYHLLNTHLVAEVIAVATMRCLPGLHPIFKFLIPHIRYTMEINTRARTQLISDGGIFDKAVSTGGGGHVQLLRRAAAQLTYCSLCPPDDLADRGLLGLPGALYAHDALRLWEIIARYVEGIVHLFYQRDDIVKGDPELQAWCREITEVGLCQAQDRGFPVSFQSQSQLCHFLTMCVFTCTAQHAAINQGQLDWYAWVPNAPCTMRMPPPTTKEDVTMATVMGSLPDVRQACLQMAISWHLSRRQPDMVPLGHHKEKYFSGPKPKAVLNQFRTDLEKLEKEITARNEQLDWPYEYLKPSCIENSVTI

These compounds were tested against Polyunsaturated fatty acid lipoxygenase ALOX12 (Homo sapiens) (UniProt P18054) (assay: Primary qHTS assay for inhibitors of human arachidonate 12S-lipoxygenase (ALOX12): Round 2). Conditions: purified 12hLO, xylenol orange hydroperoxide absorbance; activity change, negative = inhibition: at 108 µM (top of the series) unless noted.
Outline: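 Purified human 12hLO at 150 nM in 25 mM Hepes, 0.01% Triton X-100, pH 7.0, preincubated 15 min at room temperature with compound. Reaction started with 40 uM arachidonic acid, 30 min at room temperature. Hydroperoxide measured by Fe-xylenol orange, 573/405 nm absorbance ratio.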
On the % scale 0 is the no-effect control and ±100 the full control effect; potency means the concentration at half of the fitted maximal effect.

Row | SMILES | Potency | activity change, negative = inhibition
1 | CC[C@H](C)[C@@H](N)C(=O)N1CCC2(CC1)Nc1ccccc1NC2=O | inconclusive: 14.1 µM [inhibitor, full curve] | 
2 | Cc1ccc(Nc2nc(N)nc(CN3CCCCCC3)n2)cc1 | inactive | 
3 | CN1CCC([C@@H]2CN(S(=O)(=O)c3ccc(Cl)s3)C[C@H]2C(N)=O)CC1 | inconclusive: 31.6 µM [inhibitor, full curve, poor fit] | 
4 | CSCCC1NC(=O)N(CC(=O)Nc2cccc(S(=O)(=O)N3CCCCCC3)c2)C1=O (stereo not drawn) | inconclusive: 79.4 µM [inhibitor, single point] | 
5 | O=C(CSC1=NC2(CCCCC2)N=C1c1cccs1)NCc1ccc(F)cc1 | inconclusive: 35.5 µM [inhibitor, partial curve] | 
6 | CCOC(=O)c1c(C)[nH]c(C)c1C(=O)COC(=O)CNC(=O)c1ccc(OCC)cc1 | inconclusive: 5.62 µM [inhibitor, full curve, poor fit] | 
7 | Cc1nc2c(c(-c3ccc(Cl)cc3)n1)CCN(C(=O)Nc1ccc(Cl)cc1)CC2 | inconclusive: 28.2 µM [inhibitor, partial curve] | 
8 | Cc1cc2c(s1)CCc1cc(C(=O)NC3CCCC3)sc1-2 | inconclusive: 79.4 µM [inhibitor, partial curve, poor fit] | 
9 | COc1ccc(O)cc1CN1CCC2(CCNCC2)C1 | inconclusive: 1.58 µM [inhibitor, full curve, poor fit] | 
10 | O=C(Nc1ccc2oc(-c3ccccc3)nc2c1)c1ccc(Cl)cc1 | inactive | 
11 | Fc1ccc(/C=N/Nc2ccc(Cl)c(Cl)c2)cc1 | active: 2.24 µM | 
12 | COc1ccc(C(=O)NCC[N+](C)(C)C)cc1 | active: 39.8 µM | 
13 | CS(=O)(=O)N(Cc1csc(-c2cccs2)n1)C1CCN(C(=O)c2ccccc2F)CC1 | inconclusive: 56.2 µM [inhibitor, partial curve, poor fit] | 
14 | Cc1cc(C)cc(C(=O)NCCc2noc(C)n2)c1 | inconclusive: 10 µM [inhibitor, full curve] | 
15 | CCC(Sc1nc2cc(OC)c(OC)cc2c(=O)n1Cc1ccco1)C(=O)NCCOC (stereo not drawn) | inactive | 
16 | CCCN(CCC)CCCNC(=O)c1cn(CCOC)c(=O)c2c1c1ccccc1n2C | inactive | 
17 | COc1ccc(-c2cc(C(=O)NCCC(=O)N3CCOCC3)c3ccccc3n2)cc1OC | inconclusive: 126 µM [inhibitor, partial curve, poor fit] | 
18 | COC(=O)[C@H]1CN(C(=O)c2ccc(N(C)C)cc2)CCN1S(C)(=O)=O | inconclusive: 100 µM [inhibitor, partial curve, poor fit] | 
19 | Cc1ccccc1OCC(=O)Nc1cc(S(=O)(=O)N2CCOCC2)ccc1N1CCCC1 | inactive | 
20 | Cc1cc(C)n2ncc(/C(N)=N/OC(=O)Nc3ccc(Cl)cc3)c2n1 | inconclusive: 3.55 µM [inhibitor, full curve, poor fit] | 
21 | Cc1cnc(C(=O)OCC(=O)Nc2cc(-c3ccccc3)nn2-c2ccccc2)cn1 | inconclusive: 35.5 µM [inhibitor, single point] | 
22 | CC(=O)Nc1ccc(-c2csc(NC(C)(C)C)n2)c(F)c1 | active: 11.2 µM | 
23 | Cc1cc(C(=O)N/N=C/c2ccc(O)c(O)c2O)c(C)n1-c1ccccc1 | inconclusive: 28.2 µM [inhibitor, partial curve] | 

Row | SMILES | Potency | activity change, negative = inhibition
24 | COc1ccc(-c2ccn(-c3cccc(F)n3)n2)cc1 | inconclusive: 25.1 µM [inhibitor, partial curve, poor fit] | 
25 | O=C1NC(=S)S/C1=C\C=C\c1ccc([N+](=O)[O-])o1 | inconclusive: 28.2 µM [inhibitor, partial curve, poor fit] | 
26 | CCN1C(=O)N(S(=O)(=O)C(F)(F)F)[C@@H](c2ccccc2)C(C(=O)OC)=C1C | inactive | 
27 | COc1ccc(OCCCC(=O)Oc2ccc3oc4ccccc4c3c2)cc1 | active: 12.6 µM | 
28 | O=c1c2ccccc2nc2n1C(CBr)CN2 (stereo not drawn) | inactive | 
29 | Cc1ccc(-c2csc(NC(=O)CSc3nc4ccccc4[nH]3)n2)cc1 | inactive | 
30 | Cc1[nH]ncc1Nc1c(C(C)C)cccc1C(C)C | inconclusive: 44.7 µM [inhibitor, partial curve, poor fit] | 
31 | Cc1ccc(S(=O)(=O)Nc2c(O)c3ccccc3oc2=O)cc1C | inconclusive: 39.8 µM [inhibitor, partial curve, poor fit] | 
32 | Fc1cccc(Nc2nc(NC3CCCC3)nc3c2cnn3-c2ccccc2)c1 | inconclusive: 126 µM [inhibitor, partial curve, poor fit] | 
33 | COc1ccc(NC(=O)Cn2c(=O)cc(C)c3c(C)nn(C)c32)cc1 | inconclusive: 0.562 µM [inhibitor, full curve, poor fit] | 
34 | CCCCOC(=O)C[N+](C)(C)C/C=C(/C)Cl | inconclusive: 12.6 µM [inhibitor, partial curve, poor fit] | 
35 | CNC(=S)N/N=C/c1cn(CCOc2ccc(OC)cc2)c2ccccc12 | active: 39.8 µM | 
36 | CN1C[C@H](C(=O)N[C@]2(C)O[C@@]3(O)[C@@H]4CCCN4C(=O)[C@H](Cc4ccccc4)N3C2=O)C[C@@H]2c3cccc4[nH]cc(c34)C[C@H]21 |  | inactive: -13.5% [at 22.9 µM]
37 | CC1(C)C2CC=C(/C=N/NC(=S)NCc3ccccc3)C1C2 (stereo not drawn) | active: 35.5 µM | 
38 | COc1ccc2c(c1)CCc1c(C(=O)Nc3cnn(Cc4ccc(Cl)cc4Cl)c3)noc1-2 | inactive | 
39 | CCCCC(=O)n1ccn(S(=O)(=O)c2ccc(C)cc2)c1=O | inactive | 
40 | CC(=O)c1ccc(Nc2nc(C)cc(C)n2)cc1 | inactive | 
41 | COc1ccc(-c2noc(N3CCN(c4ccc(Cl)cc4)CC3)n2)cc1OC | inactive | 
42 | COc1ccc(-c2nc(CN3CCN(C(=O)NCCc4ccccc4)CC3)c(C)o2)cc1 | inactive | 
43 | CCOC(=O)C1=C(COC(=O)/C=C/c2cccc(Br)c2)NC(=O)NC1C (stereo not drawn) | inconclusive: 79.4 µM [inhibitor, partial curve, poor fit] | 
44 | CC(C)Cc1nn2c(=O)cc(COC(=O)c3ccccc3NC(=O)c3cccs3)nc2s1 | inactive | 
45 | Cc1ccccc1C(=O)N1CCC2(CC1)NC(=O)N(c1ccccc1)N2 | inconclusive: 1.41 µM [inhibitor, full curve, poor fit] | 
46 | Cc1ccc(N/N=C(\C#N)C(N)=S)c(C)c1 | active: 8.91 µM | 

Part of the list above in order of molar mass, rising.
Row | SMILES | Potency | activity change, negative = inhibition
46 | Cc1ccc(N/N=C(\C#N)C(N)=S)c(C)c1 | active: 8.91 µM | 
14 | Cc1cc(C)cc(C(=O)NCCc2noc(C)n2)c1 | inconclusive: 10 µM [inhibitor, full curve] | 
9 | COc1ccc(O)cc1CN1CCC2(CCNCC2)C1 | inconclusive: 1.58 µM [inhibitor, full curve, poor fit] | 
25 | O=C1NC(=S)S/C1=C\C=C\c1ccc([N+](=O)[O-])o1 | inconclusive: 28.2 µM [inhibitor, partial curve, poor fit] | 
8 | Cc1cc2c(s1)CCc1cc(C(=O)NC3CCCC3)sc1-2 | inconclusive: 79.4 µM [inhibitor, partial curve, poor fit] | 
45 | Cc1ccccc1C(=O)N1CCC2(CC1)NC(=O)N(c1ccccc1)N2 | inconclusive: 1.41 µM [inhibitor, full curve, poor fit] | 
20 | Cc1cc(C)n2ncc(/C(N)=N/OC(=O)Nc3ccc(Cl)cc3)c2n1 | inconclusive: 3.55 µM [inhibitor, full curve, poor fit] | 
18 | COC(=O)[C@H]1CN(C(=O)c2ccc(N(C)C)cc2)CCN1S(C)(=O)=O | inconclusive: 100 µM [inhibitor, partial curve, poor fit] | 
41 | COc1ccc(-c2noc(N3CCN(c4ccc(Cl)cc4)CC3)n2)cc1OC | inactive | 
21 | Cc1cnc(C(=O)OCC(=O)Nc2cc(-c3ccccc3)nn2-c2ccccc2)cn1 | inconclusive: 35.5 µM [inhibitor, single point] | 
16 | CCCN(CCC)CCCNC(=O)c1cn(CCOC)c(=O)c2c1c1ccccc1n2C | inactive | 
17 | COc1ccc(-c2cc(C(=O)NCCC(=O)N3CCOCC3)c3ccccc3n2)cc1OC | inconclusive: 126 µM [inhibitor, partial curve, poor fit] | 
19 | Cc1ccccc1OCC(=O)Nc1cc(S(=O)(=O)N2CCOCC2)ccc1N1CCCC1 | inactive | 
38 | COc1ccc2c(c1)CCc1c(C(=O)Nc3cnn(Cc4ccc(Cl)cc4Cl)c3)noc1-2 | inactive | 

Next structures follow.

Row | SMILES | Potency | activity change, negative = inhibition
47 | CC1=NN(c2ccccc2)C(=O)C1C(=O)c1ccc(Cl)cc1 (stereo not drawn) | inactive | 
48 | COc1ccc(C2CC(=O)N3CN(c4ccc(C)c(Cl)c4)CSC3=C2C#N)cc1OC (stereo not drawn) | active: 35.5 µM | 
49 | COc1ccc(CCn2c(Br)nc3c(=O)n(C)c(=O)n(C)c32)cc1 | inactive | 
50 | O=C(c1ccco1)N1CCN(C(c2ccccc2F)c2nnnn2Cc2cccs2)CC1 (stereo not drawn) | inconclusive: 22.4 µM [inhibitor, single point] | 
51 | O=C1CC(NCc2ccncc2)C(=O)N1c1ccc(Cl)cc1 (stereo not drawn) | inconclusive: 50.1 µM [inhibitor, partial curve, poor fit] | 
52 | O=C(NCc1ccc(C(F)(F)F)cc1)C1CCN(S(=O)(=O)/C=C/c2ccccc2)CC1 | inactive | 
53 | COC(=O)c1cc(-c2ccc(OC(C)C)cc2)nc2ccccc12 | inconclusive: 50.1 µM [inhibitor, partial curve, poor fit] | 
54 | Cc1cccc(C)c1NC(=O)C1(C)CSCC(=O)N1Cc1cccc(F)c1 (stereo not drawn) | inconclusive: 112 µM [inhibitor, single point] | 
55 | COC(=O)C1CC23C=CCN4CCC5(c6ccccc6NC15C2C)C43 (stereo not drawn) | inconclusive: 35.5 µM [inhibitor, partial curve, poor fit] | 
56 | Cc1cn2c(N)c(C=C3C=C(Cl)C(=O)C(Cl)=C3)c(=O)nc2s1 | inactive | 
57 | CCCC(=O)Nc1oc2c(C)cccc2c(=O)c1-c1ccc(OC)cc1 | inconclusive: 2 µM [inhibitor, partial curve, poor fit] | 
58 | COc1ccccc1CNC(=O)C(C)Sc1ccsc1[N+](=O)[O-] (stereo not drawn) | inconclusive: 50.1 µM [inhibitor, partial curve, poor fit] | 
59 | Cc1cc(C(=O)N(C)C2CCS(=O)(=O)C2)c2ccccc2n1 (stereo not drawn) | inactive | 
60 | CCc1nc2c(OCC(=O)C(C)(C)C)cccn2c1N(C)C(=O)CC(C)C | inconclusive: 100 µM [inhibitor, partial curve, poor fit] | 
61 | CCC(C)/C=C/C1=CC2=C(Cl)C(=O)C3(C)OC(=O)C(C(=O)C(C)C(C)O)C3C2=CO1 (stereo not drawn) | inconclusive: 44.7 µM [inhibitor, partial curve, poor fit] | 
62 | C=CCNCc1cccn1-c1ccccc1 | inconclusive: 2.51 µM [inhibitor, full curve, poor fit] | 
63 | Cc1cccc(CNC(=O)C2CC(c3ccc(F)c(C)c3)CN(C(=O)c3ccccc3)C2)c1 (stereo not drawn) | inconclusive: 25.1 µM [inhibitor, full curve] | 
64 | COc1ccc(CNC(=O)C2CCN(S(=O)(=O)c3ccc4nc5c(c(C(=O)O)c4c3)CCCC5)CC2)cc1 | inactive and inconclusive: 28.2 µM [inhibitor, partial curve, poor fit] | 
65 | Cn1nc2c(c1NC(=O)Cn1nc3c(cc1=O)CCCC3)CSC2 | inconclusive: 50.1 µM [inhibitor, partial curve, poor fit] | 
66 | CCSc1ncc(Cl)c(C(=O)Nc2ccc(S(=O)(=O)N3CCCCC3C)cc2)n1 (stereo not drawn) | inactive | 
67 | O=C(C1=C(O)C(=O)N(CCN2CCOCC2)C1c1cccc(Br)c1)c1cccs1 (stereo not drawn) | inconclusive: 28.2 µM [inhibitor, single point] | 
68 | CCC1=C(C(=O)OC)C(c2ccc(C)cc2C)N2C(CC(=O)N3CCCCC3C)=CSC2=N1 (stereo not drawn) | inconclusive: 14.1 µM [inhibitor, full curve] | 
